PMC4593389

Amino acid sequences for entries named in this document (tags omitted). Residues count along the entry.
UniProt P02649, residues 19-317: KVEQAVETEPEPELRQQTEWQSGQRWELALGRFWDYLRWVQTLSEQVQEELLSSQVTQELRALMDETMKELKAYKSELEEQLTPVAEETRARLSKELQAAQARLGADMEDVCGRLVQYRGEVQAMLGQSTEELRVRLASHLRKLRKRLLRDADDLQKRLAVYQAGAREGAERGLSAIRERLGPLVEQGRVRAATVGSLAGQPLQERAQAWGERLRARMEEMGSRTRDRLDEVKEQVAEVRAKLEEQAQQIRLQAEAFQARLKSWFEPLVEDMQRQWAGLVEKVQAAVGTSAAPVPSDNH
UniProt P10909, residues 23-449: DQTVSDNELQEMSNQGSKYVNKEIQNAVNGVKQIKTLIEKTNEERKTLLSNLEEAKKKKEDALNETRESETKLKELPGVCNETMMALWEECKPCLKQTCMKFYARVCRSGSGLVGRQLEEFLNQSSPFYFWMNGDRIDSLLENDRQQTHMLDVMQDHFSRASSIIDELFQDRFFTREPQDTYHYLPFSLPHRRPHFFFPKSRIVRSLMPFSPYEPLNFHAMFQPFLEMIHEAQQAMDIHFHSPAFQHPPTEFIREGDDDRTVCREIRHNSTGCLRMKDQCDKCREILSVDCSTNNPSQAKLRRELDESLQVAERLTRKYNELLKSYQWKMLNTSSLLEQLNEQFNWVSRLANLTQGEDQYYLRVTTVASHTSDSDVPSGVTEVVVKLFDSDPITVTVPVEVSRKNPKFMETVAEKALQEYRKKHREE
UniProt P06733: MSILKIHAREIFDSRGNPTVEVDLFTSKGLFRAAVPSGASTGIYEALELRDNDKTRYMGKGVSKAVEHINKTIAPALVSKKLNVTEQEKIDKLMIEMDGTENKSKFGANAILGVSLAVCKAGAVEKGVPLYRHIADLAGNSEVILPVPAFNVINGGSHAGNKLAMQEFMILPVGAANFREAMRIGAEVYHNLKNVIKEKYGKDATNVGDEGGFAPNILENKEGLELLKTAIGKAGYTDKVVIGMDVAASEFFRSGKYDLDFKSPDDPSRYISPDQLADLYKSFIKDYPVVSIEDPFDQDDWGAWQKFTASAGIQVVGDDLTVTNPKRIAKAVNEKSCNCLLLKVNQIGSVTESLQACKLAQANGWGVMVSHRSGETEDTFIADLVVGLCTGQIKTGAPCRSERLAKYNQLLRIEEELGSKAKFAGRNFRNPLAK
UniProt P69905: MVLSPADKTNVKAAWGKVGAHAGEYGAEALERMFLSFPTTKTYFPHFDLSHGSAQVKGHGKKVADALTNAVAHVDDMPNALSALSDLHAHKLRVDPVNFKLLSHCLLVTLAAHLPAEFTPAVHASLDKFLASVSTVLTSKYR
UniProt P04264: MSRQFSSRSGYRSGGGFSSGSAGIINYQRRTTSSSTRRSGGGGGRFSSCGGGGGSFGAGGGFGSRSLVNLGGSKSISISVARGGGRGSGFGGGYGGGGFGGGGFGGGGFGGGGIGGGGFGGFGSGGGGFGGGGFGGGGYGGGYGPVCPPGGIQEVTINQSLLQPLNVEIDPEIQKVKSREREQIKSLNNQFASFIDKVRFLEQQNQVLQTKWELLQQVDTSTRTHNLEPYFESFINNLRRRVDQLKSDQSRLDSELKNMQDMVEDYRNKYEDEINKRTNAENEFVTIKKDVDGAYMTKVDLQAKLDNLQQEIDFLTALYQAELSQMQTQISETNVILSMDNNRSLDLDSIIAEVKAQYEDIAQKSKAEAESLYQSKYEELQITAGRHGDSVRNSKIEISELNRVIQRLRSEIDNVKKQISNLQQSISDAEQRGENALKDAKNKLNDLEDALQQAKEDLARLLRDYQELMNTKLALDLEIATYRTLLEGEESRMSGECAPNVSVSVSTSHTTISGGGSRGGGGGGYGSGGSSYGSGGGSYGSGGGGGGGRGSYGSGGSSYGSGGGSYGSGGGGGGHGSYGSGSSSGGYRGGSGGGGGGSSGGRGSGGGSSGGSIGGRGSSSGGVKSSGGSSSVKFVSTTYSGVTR
UniProt P08670: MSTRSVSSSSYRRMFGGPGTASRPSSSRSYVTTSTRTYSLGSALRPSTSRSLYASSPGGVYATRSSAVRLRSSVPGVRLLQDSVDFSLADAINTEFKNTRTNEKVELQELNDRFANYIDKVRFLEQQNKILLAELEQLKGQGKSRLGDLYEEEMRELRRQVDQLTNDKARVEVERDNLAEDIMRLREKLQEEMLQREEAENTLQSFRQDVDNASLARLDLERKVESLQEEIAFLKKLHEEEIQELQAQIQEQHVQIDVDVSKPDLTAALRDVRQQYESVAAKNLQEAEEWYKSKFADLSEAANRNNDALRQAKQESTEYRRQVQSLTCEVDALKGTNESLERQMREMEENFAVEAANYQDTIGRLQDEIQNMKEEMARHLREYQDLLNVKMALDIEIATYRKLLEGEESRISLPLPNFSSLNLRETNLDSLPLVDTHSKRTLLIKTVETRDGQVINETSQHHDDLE

target: T1, C-reactive protein (human (endogenous in serum)) (UniProt P02741); experiment: affinity purification with mass spectrometry; CRP complexes precipitated from mixed serum with anti-CRP beads as above; two-dimensional electrophoresis, spots that differ twofold or more between patients and healthy controls identified by MALDI TOF/TOF MS
T1 sequence: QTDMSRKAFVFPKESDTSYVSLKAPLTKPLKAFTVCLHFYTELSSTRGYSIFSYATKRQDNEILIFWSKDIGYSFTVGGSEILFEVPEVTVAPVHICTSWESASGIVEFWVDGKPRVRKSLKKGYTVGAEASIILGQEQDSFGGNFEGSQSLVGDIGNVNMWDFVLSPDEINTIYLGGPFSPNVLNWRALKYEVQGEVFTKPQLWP

| binding | Substance |
| --- | --- |
| binds | Ig kappa chain C region (human (endogenous in serum)) |
| binds | SAA2 isoform A (human (endogenous in serum)) |
| binds | apolipoprotein E (from UniProt P02649 19-317) |
| binds | clusterin (entry highly similar to Clusterin, IPI00291262) (from UniProt P10909 23-449) |
| binds | enolase 1 (from UniProt P06733 1-434) |
| binds | hemoglobin (HBA1/HBA2) (from UniProt P69905 1-142) |
| binds | keratin, type II cytoskeletal 1 (from UniProt P04264 1-644) |
| binds | vimentin (from UniProt P08670 1-466) |

Results are given in words; binding and its absence hold for the method and conditions named. Binding seen in cells or lysates may run through a third protein. A yes stands for co-enrichment or nearness to the bait. Other partners may have been found.
